# Measured values from the supplement of paper PMC10849652.
# Amino acid sequences for entries named in this document (tags omitted). A change or cut given only in a name is not applied to a line headed by its entry.
# UniProt Q9Y3L3: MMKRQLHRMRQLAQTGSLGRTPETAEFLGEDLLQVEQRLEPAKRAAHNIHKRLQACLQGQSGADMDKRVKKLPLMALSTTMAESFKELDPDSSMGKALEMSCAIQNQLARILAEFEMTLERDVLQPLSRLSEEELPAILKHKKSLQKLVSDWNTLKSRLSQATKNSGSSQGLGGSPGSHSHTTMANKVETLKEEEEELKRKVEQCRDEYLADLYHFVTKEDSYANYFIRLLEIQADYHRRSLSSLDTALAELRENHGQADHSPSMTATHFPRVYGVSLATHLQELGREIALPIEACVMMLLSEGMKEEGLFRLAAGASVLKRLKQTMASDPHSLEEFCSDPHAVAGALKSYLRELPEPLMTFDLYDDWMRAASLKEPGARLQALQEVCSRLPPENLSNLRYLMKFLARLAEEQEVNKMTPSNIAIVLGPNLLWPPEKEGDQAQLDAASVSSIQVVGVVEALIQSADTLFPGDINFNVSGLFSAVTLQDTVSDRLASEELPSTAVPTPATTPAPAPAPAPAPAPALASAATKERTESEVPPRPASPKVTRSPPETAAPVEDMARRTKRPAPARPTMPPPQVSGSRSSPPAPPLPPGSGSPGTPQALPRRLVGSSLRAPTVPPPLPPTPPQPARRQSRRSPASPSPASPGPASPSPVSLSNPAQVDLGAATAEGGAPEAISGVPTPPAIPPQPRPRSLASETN
# UniProt P55822: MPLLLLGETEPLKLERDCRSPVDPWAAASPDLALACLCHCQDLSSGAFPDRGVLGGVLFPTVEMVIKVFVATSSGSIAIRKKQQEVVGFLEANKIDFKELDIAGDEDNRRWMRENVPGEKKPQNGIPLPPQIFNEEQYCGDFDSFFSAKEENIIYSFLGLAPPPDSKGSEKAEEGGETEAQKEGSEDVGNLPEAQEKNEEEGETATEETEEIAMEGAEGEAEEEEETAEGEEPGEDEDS
# UniProt Q9BYW2: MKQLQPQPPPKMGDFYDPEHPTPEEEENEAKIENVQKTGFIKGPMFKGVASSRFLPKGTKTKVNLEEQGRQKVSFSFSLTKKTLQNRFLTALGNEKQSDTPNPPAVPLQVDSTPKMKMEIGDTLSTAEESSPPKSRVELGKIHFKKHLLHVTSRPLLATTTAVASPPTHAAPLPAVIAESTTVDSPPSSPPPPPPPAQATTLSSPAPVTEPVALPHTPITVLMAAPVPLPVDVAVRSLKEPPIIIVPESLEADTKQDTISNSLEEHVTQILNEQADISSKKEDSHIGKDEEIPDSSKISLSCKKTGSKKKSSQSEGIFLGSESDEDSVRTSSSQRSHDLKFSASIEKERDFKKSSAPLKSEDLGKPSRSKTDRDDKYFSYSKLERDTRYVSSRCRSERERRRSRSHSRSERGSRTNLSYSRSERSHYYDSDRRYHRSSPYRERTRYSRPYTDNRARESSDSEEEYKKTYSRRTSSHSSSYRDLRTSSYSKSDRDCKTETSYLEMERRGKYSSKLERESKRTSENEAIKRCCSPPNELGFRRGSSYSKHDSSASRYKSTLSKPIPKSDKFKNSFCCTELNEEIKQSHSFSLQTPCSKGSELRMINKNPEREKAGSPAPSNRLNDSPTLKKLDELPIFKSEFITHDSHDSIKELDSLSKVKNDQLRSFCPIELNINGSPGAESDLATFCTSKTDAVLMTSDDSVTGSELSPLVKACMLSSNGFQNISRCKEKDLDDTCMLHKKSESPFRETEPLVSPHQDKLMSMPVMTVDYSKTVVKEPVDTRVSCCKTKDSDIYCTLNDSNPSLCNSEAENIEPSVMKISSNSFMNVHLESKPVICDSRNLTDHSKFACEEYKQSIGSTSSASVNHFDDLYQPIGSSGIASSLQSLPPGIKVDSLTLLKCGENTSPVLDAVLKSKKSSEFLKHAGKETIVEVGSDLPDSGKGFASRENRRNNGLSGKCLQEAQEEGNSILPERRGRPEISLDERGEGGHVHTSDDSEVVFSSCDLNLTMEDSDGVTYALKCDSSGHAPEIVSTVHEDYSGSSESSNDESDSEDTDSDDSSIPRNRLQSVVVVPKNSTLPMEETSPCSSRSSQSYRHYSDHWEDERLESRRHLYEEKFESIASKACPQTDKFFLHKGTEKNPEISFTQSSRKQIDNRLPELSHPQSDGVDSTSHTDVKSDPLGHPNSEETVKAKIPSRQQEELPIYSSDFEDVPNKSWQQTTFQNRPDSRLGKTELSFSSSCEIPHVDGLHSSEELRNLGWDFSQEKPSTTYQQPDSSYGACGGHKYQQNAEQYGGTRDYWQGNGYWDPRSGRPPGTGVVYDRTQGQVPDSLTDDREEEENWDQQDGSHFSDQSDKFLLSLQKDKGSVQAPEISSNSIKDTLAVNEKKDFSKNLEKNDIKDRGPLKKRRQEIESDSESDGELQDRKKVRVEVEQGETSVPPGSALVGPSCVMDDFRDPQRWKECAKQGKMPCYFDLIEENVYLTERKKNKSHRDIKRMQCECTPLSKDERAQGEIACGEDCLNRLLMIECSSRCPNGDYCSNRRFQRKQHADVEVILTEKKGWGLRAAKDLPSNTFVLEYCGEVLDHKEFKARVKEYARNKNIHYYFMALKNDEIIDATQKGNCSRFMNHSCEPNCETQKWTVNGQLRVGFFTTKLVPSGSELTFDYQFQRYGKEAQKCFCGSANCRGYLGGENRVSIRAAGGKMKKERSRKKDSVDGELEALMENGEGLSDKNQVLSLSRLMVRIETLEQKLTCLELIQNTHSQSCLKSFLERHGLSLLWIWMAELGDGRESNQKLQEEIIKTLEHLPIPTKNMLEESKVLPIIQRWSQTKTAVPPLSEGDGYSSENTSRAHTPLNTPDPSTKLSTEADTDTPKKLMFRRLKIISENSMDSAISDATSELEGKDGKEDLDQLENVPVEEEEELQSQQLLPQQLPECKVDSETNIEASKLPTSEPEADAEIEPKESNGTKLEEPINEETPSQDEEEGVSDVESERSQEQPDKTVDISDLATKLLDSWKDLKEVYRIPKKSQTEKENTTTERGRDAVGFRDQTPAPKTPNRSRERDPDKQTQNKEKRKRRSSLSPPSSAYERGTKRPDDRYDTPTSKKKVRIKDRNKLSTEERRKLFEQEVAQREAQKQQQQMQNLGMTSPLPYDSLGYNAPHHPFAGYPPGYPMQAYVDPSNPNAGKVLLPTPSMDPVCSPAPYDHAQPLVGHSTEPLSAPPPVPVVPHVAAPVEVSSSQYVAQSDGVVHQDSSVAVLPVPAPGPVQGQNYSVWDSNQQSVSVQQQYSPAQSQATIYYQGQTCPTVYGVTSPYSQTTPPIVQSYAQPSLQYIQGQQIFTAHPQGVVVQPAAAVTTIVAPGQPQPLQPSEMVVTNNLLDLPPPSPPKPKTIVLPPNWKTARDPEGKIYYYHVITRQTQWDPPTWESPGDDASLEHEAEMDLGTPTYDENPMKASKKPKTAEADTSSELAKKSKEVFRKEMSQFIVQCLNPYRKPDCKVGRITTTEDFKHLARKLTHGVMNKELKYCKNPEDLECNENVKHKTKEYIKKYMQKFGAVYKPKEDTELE
# UniProt Q6P4A7: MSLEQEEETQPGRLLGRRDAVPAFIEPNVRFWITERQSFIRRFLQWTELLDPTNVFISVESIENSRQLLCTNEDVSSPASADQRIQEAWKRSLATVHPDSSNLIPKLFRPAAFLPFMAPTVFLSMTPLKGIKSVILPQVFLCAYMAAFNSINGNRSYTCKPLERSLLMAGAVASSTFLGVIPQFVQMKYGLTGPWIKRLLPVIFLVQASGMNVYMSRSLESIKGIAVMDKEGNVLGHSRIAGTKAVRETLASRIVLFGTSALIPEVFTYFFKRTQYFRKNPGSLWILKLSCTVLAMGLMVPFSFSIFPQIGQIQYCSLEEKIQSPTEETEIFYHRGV
# UniProt Q9NP31, whole entry, looked up: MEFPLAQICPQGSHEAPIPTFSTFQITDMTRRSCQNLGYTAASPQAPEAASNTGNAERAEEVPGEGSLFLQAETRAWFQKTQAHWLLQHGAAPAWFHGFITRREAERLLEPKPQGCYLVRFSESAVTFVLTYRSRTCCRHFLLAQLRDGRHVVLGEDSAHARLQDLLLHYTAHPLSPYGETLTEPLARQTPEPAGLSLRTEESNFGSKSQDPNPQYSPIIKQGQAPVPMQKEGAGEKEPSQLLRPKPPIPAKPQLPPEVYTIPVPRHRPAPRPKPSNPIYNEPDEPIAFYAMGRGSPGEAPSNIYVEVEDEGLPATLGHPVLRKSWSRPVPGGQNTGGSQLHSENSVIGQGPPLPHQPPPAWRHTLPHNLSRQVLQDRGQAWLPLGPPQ
# UniProt P05543: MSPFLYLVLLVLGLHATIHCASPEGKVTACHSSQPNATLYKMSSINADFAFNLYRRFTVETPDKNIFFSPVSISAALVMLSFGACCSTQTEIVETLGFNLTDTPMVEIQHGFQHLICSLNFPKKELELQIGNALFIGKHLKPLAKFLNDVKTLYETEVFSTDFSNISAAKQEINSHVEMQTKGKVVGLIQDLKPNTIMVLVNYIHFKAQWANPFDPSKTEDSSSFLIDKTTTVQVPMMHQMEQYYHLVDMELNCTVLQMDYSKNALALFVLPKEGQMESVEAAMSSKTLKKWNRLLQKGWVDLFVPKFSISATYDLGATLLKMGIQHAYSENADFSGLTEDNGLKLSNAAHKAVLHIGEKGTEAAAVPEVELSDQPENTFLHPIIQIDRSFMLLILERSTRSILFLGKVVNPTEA
# UniProt Q5FBB7: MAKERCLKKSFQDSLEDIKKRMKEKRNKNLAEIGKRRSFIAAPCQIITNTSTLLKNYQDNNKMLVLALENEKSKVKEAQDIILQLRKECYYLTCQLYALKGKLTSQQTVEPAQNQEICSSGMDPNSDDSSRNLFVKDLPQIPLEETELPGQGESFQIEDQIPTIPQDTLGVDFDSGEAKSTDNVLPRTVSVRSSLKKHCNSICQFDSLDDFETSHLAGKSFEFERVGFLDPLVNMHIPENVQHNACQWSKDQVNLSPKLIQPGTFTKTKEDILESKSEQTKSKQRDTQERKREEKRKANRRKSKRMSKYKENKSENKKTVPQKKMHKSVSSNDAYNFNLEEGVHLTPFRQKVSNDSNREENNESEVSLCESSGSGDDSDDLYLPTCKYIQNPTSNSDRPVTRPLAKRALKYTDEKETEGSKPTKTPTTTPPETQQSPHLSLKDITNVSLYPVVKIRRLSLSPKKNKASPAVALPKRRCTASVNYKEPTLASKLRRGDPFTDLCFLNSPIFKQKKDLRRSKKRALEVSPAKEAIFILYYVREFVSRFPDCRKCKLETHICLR
# UniProt Q7L8J4: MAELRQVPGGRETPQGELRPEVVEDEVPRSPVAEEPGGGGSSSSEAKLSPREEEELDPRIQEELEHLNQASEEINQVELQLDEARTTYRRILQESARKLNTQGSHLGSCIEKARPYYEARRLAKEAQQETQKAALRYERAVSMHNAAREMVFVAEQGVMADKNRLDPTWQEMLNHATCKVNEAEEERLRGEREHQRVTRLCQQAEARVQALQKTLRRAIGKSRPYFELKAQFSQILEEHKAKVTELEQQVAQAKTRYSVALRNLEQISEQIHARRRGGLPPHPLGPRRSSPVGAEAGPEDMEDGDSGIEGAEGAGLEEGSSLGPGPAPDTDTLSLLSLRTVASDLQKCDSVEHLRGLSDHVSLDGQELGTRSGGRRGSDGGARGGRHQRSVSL
# UniProt Q9NRX5: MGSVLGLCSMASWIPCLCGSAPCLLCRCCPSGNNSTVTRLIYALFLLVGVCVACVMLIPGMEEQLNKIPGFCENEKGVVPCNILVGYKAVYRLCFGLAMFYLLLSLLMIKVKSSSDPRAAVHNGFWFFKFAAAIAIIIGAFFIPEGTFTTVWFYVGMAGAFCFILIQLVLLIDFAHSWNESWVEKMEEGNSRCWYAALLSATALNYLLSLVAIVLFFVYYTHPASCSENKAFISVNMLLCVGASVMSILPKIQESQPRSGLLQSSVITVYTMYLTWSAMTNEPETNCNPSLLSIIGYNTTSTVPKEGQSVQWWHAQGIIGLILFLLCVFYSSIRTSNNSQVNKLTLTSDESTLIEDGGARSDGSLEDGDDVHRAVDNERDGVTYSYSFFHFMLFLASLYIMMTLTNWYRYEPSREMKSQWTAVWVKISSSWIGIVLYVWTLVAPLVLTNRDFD
# UniProt Q12874: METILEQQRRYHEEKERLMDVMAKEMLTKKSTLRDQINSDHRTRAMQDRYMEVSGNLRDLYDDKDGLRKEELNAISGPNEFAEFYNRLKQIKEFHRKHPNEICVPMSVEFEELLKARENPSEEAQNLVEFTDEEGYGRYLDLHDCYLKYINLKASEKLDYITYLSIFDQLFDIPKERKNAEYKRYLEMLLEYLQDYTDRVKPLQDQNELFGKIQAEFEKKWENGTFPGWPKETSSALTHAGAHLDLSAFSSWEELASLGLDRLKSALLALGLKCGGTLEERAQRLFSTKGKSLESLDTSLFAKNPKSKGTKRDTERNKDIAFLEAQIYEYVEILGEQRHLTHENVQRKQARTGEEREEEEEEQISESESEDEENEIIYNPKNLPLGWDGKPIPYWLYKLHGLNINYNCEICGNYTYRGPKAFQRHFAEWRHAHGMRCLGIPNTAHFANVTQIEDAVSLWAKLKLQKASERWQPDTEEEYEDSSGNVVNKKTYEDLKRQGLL
# The list shows a part of the results.
# Compound: CC1=C(SC2=C1C(=N[C@H](C3=NN=C(N32)C)CC(=O)N)C4=CC=C(C=C4)Cl)C
# Experiment: log2 fold change, soluble protein after heating vs DMSO (PISA); higher = thermal stabilisation; K562 lysate, 10 uM; active = over 0.2 and 3.5 SD of the protein, either way, in both replicates (recomputed)
# In short: (§1)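 Log-two fold change in thermal stability relative to solvent controls is reported from duplicates. For each sample, crude K562 extract from dounce-homogenised pellets in PBS pH 7.4 with 1 mM MgCl2, at 1 mg/mL protein, was treated with 10 μM compound for 30 min. Aliquots heated for 3 min across 48°C-58°C were pooled, brought to 0.5% NP-40 at 4°C and cleared at 21,000xg for 90 min. The supernatant was quantified by TMTpro 16plex LC-MS/MS with channel sums equalised.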
row,Target,log2 fold change
1,SH3BP1 (UniProt Q9Y3L3),inactive: -0.009
2,SIX5 (UniProt Q8N196),inactive: 0.034
3,SH2B1 (UniProt Q9NRF2),inactive: 0.332
4,SIPA1L1 (UniProt O43166),inactive: -0.025
5,SH3BGR (UniProt P55822),inactive: -0.025
6,SIAH2 (UniProt O43255),inactive: 0.162
7,SERPINF2 (UniProt P08697),inactive: 0.02
8,SLAIN2 (UniProt Q9P270),inactive: -0.031
9,SFR1 isoform 2 (UniProt Q86XK3),inactive: -0.005
10,SGPL1 (UniProt O95470),inactive: 0.003
11,SETD2 (UniProt Q9BYW2),inactive: -0.001
12,SIMC1 (UniProt Q8NDZ2),inactive: 0.138
13,SHQ1 (UniProt Q6PI26),inactive: -0.146
14,SERPINC1 (UniProt P01008),inactive: 0.044
15,SFXN4 (UniProt Q6P4A7),inactive: -0.054
16,SIRT6 (UniProt Q8N6T7),inactive: 0.045
17,SIRT2 (UniProt Q8IXJ6),inactive: -0.066
18,SH3GLB2 (UniProt Q9NR46),inactive: -0.013
19,SH2D2A isoform 2 (UniProt Q9NP31),inactive: 0.067
20,SIRT1 (UniProt Q96EB6),inactive: 0.045

row,Target,log2 fold change
1,SERPINA7 (UniProt P05543),inactive: -0.11
2,SETD3 (UniProt Q86TU7),inactive: -0.008
3,SFPQ (UniProt P23246),inactive: 0.009
4,SERPINA12 (UniProt Q8IW75),inactive: 0.233
5,SLC12A6 (UniProt Q9UHW9),inactive: 0.017
6,SGO1 (UniProt Q5FBB7),inactive: -0.004
7,SF3A2 (UniProt Q15428),inactive: 0.044
8,SIKE1 (UniProt Q9BRV8),inactive: 0.007
9,SERAC1 (UniProt Q96JX3),inactive: 0.145
10,SERF2 (UniProt P84101),inactive: -0.019
11,SH3GL1 (UniProt Q99961),inactive: 0.016
12,SLC19A2 (UniProt O60779),inactive: 0.094
13,SH3BP5L (UniProt Q7L8J4),inactive: 0.015
14,SLC20A2 (UniProt Q08357),inactive: 0.054
15,SERINC1 (UniProt Q9NRX5),inactive: -0.059
16,SH3GL3 isoform 3 (UniProt Q99963),inactive: 0.033
17,SFXN4 isoform 3 (UniProt Q6P4A7),inactive: -0.016
18,SERBP1 isoform 3 (UniProt Q8NC51),inactive: -0.028
19,SF3A3 (UniProt Q12874),inactive: 0.031

# Compound: CC1=C2C(=CC=C1)N=C(N(C2=O)C3=CC=CC=C3C)CN4C=NC5=C(N=CN=C54)N
# Experiment: as above
# In short: as §1
row,Target,log2 fold change
1,SH3BP1 (UniProt Q9Y3L3),inactive: 0.093
2,SIPA1L1 (UniProt O43166),inactive: -0.013
3,SH3BGR (UniProt P55822),inactive: 0.017
4,SIAH2 (UniProt O43255),inactive: -0.015
5,SERPINF2 (UniProt P08697),inactive: -0.073
6,SLAIN2 (UniProt Q9P270),inactive: 0.025
7,SFR1 isoform 2 (UniProt Q86XK3),inactive: -0.01
8,SGPL1 (UniProt O95470),inactive: 0.024
9,SETD2 (UniProt Q9BYW2),inactive: 0.046
10,SIMC1 (UniProt Q8NDZ2),inactive: 0.014
11,SERPINC1 (UniProt P01008),inactive: 0.008
12,SFXN4 (UniProt Q6P4A7),inactive: -0.04
13,SIRT6 (UniProt Q8N6T7),inactive: -0.006
14,SIRT2 (UniProt Q8IXJ6),inactive: 0.046
15,SH3GLB2 (UniProt Q9NR46),inactive: 0.041
16,SH2D2A isoform 2 (UniProt Q9NP31),inactive: -0.085

row,Target,log2 fold change
1,SIRT1 (UniProt Q96EB6),inactive: 0.016
2,SERPINA7 (UniProt P05543),inactive: 0.137
3,SETD3 (UniProt Q86TU7),inactive: -0.004
4,SFPQ (UniProt P23246),inactive: 0.024
5,SLC12A6 (UniProt Q9UHW9),inactive: 0.017
6,SGO1 (UniProt Q5FBB7),inactive: 0.044
7,SF3A2 (UniProt Q15428),inactive: -0.035
8,SIKE1 (UniProt Q9BRV8),inactive: -0.078
9,SERF2 (UniProt P84101),inactive: -0.126
10,SH3GL1 (UniProt Q99961),inactive: 0.007
11,SH3BP5L (UniProt Q7L8J4),inactive: 0.047
12,SLC20A2 (UniProt Q08357),inactive: 0.202
13,SERINC1 (UniProt Q9NRX5),inactive: -0.021
14,SH3GL3 isoform 3 (UniProt Q99963),inactive: 0.133
15,SFXN4 isoform 3 (UniProt Q6P4A7),inactive: 0.107
16,SF3A3 (UniProt Q12874),inactive: -0.006
